Source: the supplement of paper PMC12823440, “Inhibitors supercharge kinase turnover through native proteolytic circuits” (Nature, 2025)
Counter-ions that a name gives are not always drawn. This is one part of the list. Hit calls seldom repeat between salt and free forms of one compound.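 Kinases were expressed as nanoluciferase fusions in K562 cells and luminescence was read every 4 h between 2 and 18 h as percent of control, DMSO set to 100% and a positive control to 0%. A time point counts as decreased when the signal drops significantly (2 sigma). The hit call is the authors' own, does not follow from the count of time points alone, and its rule is not shown.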

Sequences of proteins named here, by UniProt entry; tags and fusion partners are left off.
UniProt P28482, whole entry: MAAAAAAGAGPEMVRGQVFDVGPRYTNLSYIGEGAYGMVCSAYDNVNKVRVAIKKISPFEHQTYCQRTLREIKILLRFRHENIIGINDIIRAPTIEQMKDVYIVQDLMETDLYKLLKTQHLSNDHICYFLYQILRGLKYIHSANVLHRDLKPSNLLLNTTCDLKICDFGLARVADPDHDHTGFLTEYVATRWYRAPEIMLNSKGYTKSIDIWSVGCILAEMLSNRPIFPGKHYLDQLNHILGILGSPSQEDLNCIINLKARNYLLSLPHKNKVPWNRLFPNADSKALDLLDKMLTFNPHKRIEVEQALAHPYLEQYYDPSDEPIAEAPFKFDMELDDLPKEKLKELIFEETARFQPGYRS

Molecular target: MAPK1 (UniProt P28482)
Assay: number of time points (of 5) at which kinase-Nluc abundance scored as decreased, DMSO-normalised (count); higher = more persistent destabilization
Conditions: K562; 2-18 h

Row | Structure (SMILES) | number of time points
1 | Cc1cnc(Cl)nc1-c1ccc(N(Cc2ccc(CNC(=O)C(F)F)cc2)C(=O)c2ccc(O)cc2O)cc1 (10 µM) | 0
2 | COc1cc2c(cc1OC)[C@@H]1C(=O)c3ccc4c(c3O[C@@H]1CO2)C=CC(C)(C)O4 [Deguelin] (10 µM) | 0
3 | CC(C)(CCCCCC(O)CCCCCC(C)(C)C(=O)O)C(=O)O [Bempedoic acid] (10 µM) | 0
4 | COc1cc2nnc(C(N)=O)c(Nc3ccc(C)cc3F)c2cc1N1CCN(CCO)CC1 (2.5 µM) | 0
5 | O=C(Nc1ccc(Cl)cc1)C1CN(C(=O)c2cccc(-c3ccco3)c2)CC(F)(F)C1 (stereo not drawn) (2.5 µM) | 0
6 | CC(=O)O[C@@H]1[C@@H](OC(C)=O)[C@@H](O)[C@H](Oc2c(-c3ccc(O)cc3)oc3cc(O)cc(O)c3c2=O)O[C@H]1C (10 µM) | 0
7 | COc1cc2nc(-c3cc(F)ccc3O)nc(N[C@@H]3CNC[C@H]3C(C)(C)O)c2cc1OC (2.5 µM) | 0
8 | C=CC(=O)Nc1cccc(Oc2nc(Nc3ccc(N4CCN(C)CC4)cc3OC)ncc2Cl)c1 (10 µM) | 0
9 | C=CC(=O)Nc1cc(Nc2nccc(-c3cn(C)c4ccccc34)n2)c(OCC(F)(F)F)nc1N(C)CCNC [AST5902  (trimesylate)] (2.5 µM) | 0
10 | O=C1C=CC2=C3c4cc(O)c(O)cc4CC3(O)COC2=C1O (stereo not drawn) [Hematein] (10 µM) | 0
11 | CCC(F)(F)c1cc(N2CCC(S(C)(=O)=O)CC2)nc2sc(C(N)=O)c(N)c12 (10 µM) | 0
12 | Cn1cc(C2=C(c3ccc(Cl)cc3Cl)C(=O)NC2=O)c2ccccc21 (10 µM) | 0
13 | CCOC(=O)c1c(N2CCc3ccc(OC)cc3C2)oc(C=C2C=Nc3ncccc32)c1O (10 µM) | 0
14 | O=C(COc1ccc(Cl)cc1)NC1CCC(NC(=O)COc2ccc(Cl)cc2)CC1 (stereo not drawn) [ISRIB (trans-isomer)] (10 µM) | 0
15 | COc1ccc(CCNCc2ccc(OCc3ccc(Cl)nc3)c(OC)c2)cc1OC [SBE13 (Hydrochloride)] (10 µM) | 0
16 | Cc1cccc(CC(=O)N2CCc3c2ccc(-c2cn(C)c4ncnc(N)c24)c3F)n1 (10 µM) | 0
17 | COc1cc(N2CCC(N3CCN(C)CC3)CC2)ccc1Nc1ncnc(Nc2ccccc2S(=O)(=O)C(C)C)n1 (10 µM) | 0

2 compounds drawn at random from those above, as already listed:
Row | Structure (SMILES) | number of time points
4 | COc1cc2nnc(C(N)=O)c(Nc3ccc(C)cc3F)c2cc1N1CCN(CCO)CC1 (2.5 µM) | 0
5 | O=C(Nc1ccc(Cl)cc1)C1CN(C(=O)c2cccc(-c3ccco3)c2)CC(F)(F)C1 (stereo not drawn) (2.5 µM) | 0

(continued)

Row | Structure (SMILES) | number of time points
18 | CC(C)(Oc1ccc(Cl)cc1)C(=O)Nc1ccc(OCc2ccc(C#N)cc2)cc1 [AMPK activator 4] (10 µM) | 0
19 | Cc1cc(N2CCOCC2)ccc1Nc1nc(NC2CCCCC2)c2[nH]cnc2n1 (10 µM) | 0
20 | COC(=O)N1CCN(C2CCC(Nc3nc(Nc4cnn(C)c4)nc4ccc(CC#N)nc34)CC2)CC1 (stereo not drawn) (10 µM) | 0
21 | CN(C)CCn1cc2cc(NC(=O)c3cccc(C(F)(F)F)n3)c(C(C)(C)O)cc2n1 (10 µM) | 0
22 | CCOc1cc(N2CCC(O)CC2)ccc1Nc1ncc2c(n1)N(C1CCCC1)CCC(=O)N2C (2.5 µM) | 0
23 | CCC[C@H](C)Oc1nc(N)c2[nH]c(=O)n(CCCCCN3CCCCC3)c2n1 (10 µM) | 0
24 | Fc1ccc(-c2nc3n(c2-c2ccncc2)CCS3)cc1 (10 µM) | 0
25 | CC(ONC(=O)c1cc(C(F)(F)F)cc(C(F)(F)F)c1)C(=O)Nc1ccc(Cl)cc1 (stereo not drawn) (2.5 µM) | 0
26 | O=C(Nc1ccccc1C(=O)NC1CCCCNC1=O)c1cc2ccccc2s1 (stereo not drawn) (10 µM) | 0
27 | N#CC(=C(/N)Sc1ccccc1N)/C(C#N)=C(\N)Sc1ccccc1N (10 µM) | 0
28 | Nc1ccc(O)c(C(=O)O)c1 [5-Aminosalicylic Acid] (10 µM) | 0
29 | CNCc1ccccc1Sc1cccc2ccccc12 [IFN alpha-IFNAR-IN-1 (hydrochloride)] (10 µM) | 0
30 | CCCCNc1ncc2c(-c3ccc(F)cc3)nn(CC3CCC(N)CC3)c2n1 (stereo not drawn) (2.5 µM) | 0
31 | Cc1ncsc1-c1ccc(CNC(=O)[C@@H]2C[C@@H](O)CN2C(=O)[C@@H](NC(=O)COCCOc2ccc(-c3cc(Nc4ccc(OC(F)(F)F)cc4)ncn3)cc2)C(C)(C)C)cc1 (2.5 µM) | 0
32 | Cn1cnc2c(F)c(Nc3ccc(Br)cc3F)c(C(=O)NOCCO)cc21 [Binimetinib] (10 µM) | 0
33 | O=C1NC(=O)C(Cc2c[nH]c3c(Cl)cccc23)N1 (stereo not drawn) [Necroptosis-IN-1] (10 µM) | 0
